The values that follow come from PMC3575409, “Identification of a Novel Protein-Protein Interaction Motif Mediating Interaction of GPCR-Associated Sorting Proteins with G Protein-Coupled Receptors” (PLoS ONE, 2013).

The chains behind the UniProt entries cited, without tags or fusion partners. Where a name states a change or a piece, a line headed by the entry shows the natural chain unless it says otherwise.
UniProt P30988: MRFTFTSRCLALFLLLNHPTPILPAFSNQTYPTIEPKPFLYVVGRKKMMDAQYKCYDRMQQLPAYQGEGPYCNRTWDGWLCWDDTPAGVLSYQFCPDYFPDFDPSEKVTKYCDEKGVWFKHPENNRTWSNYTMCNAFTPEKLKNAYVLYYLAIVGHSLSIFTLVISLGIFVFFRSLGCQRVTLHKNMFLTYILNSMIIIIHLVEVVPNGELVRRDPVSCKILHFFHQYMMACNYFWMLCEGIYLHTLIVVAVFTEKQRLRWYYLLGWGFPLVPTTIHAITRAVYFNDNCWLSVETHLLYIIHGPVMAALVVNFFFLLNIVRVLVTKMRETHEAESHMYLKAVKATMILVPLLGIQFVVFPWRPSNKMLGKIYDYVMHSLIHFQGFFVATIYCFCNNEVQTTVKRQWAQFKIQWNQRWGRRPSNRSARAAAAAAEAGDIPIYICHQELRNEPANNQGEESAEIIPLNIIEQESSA

Assay [1] addresses N-terminal GFP-tagged CALCR (UniProt P30988). In words: co-IP; lysates of HEK293 cells stably expressing GFP-tagged receptors or MyrPalm-mYFP and transfected with the central domain of GASP-1; anti-GFP antibody and protein A-Sepharose; blot with anti-GASP serum; 0.3% Triton X-100.
In assay [2] the target is GST-fused C-tail of the muscarinic M1 acetylcholine receptor (residues 414–460). Description: pull-down; GST-fused receptor C-tails immobilized on glutathione-Sepharose beads, incubated with [35S]-labelled in vitro translated GASPs 1 h at 4°C; 20 mM Tris-HCl pH 7.4, 150 mM NaCl, 1 mM EDTA, 1 mM DTT, 10% glycerol, 1% Triton X-100; Phosphor-imager quantification; only the target purified.

Assay [3] concerns the target GST-fused C-tail of the β1 adrenergic receptor (residues 373–477). The assay is described as above.
Assay [4] has as its target GST-fused C-tail of the δ-opioid receptor (residues 314–372). Described as above.

Results are given in words; binding and its absence hold for the method and conditions named. Binding seen in cells or lysates may run through a third protein. Binding calls can cover weak binding; strength is not graded here.

B1: central domain of GASP-1 (AA 380 to 1073) expressed in HEK293 cells (domain or fragment, UniProt Q5JY77 380-1073)
chain: MTKEEAKTKARARAKQEARSEEEALIGTWFWATDESSMADEASIESSLQVEDESIIGSWFWTEEEASMGTGASSKSRPRTDGERIGDSLFGAREKTSMKTGAEATSESILAADDEQVIIGSWFWAGEEVNQEAEEETIFGSWFWVIDAASVESGVGVSCESRTRSEEEEVIGPWFWSGEQVDIEAGIGEEARPGAEEETIFGSWFWAENQTYMDCRAETSCDTMQGAEEEEPIIGSWFWTRVEACVEGDVNSKSSLEDKEEAMIPCFGAKEEVSMKHGTGVRCRFMAGAEETNNKSCFWAEKEPCMYPAGGGSWKSRPEEEEDIVNSWFWSRKYTKPEAIIGSWLWATEESNIDGTGEKAKLLTEEETIINSWFWKEDEAISEATDREESRPEAEEGDIIGSWFWAGEEDRLEPAAETREEDRLAAEKEGIVGSWFGAREETIRREAGSCSKSSPKAEEEEVIIGSWFWEEEASPEAVAGVGFESKPGTEEEEITVGSWFWPEEEASIQAGSQAVEEMESETEEETIFGSWFWDGKEVSEEAGPCCVSKPEDDEEMIVESWFWSRDKAIKETGTVATCESKPENEEGAIVGSWFEAEDEVDNRTDNGSNCGSRTLADEDEAIVGSWFWAGDEAHFESNPSPVFRAICRSTCSVEQEPDPSRRPQSWEEVTVQFKPGPWGRVGFPSISPFRFPKE
With B1, the binding entry in assay [1] is reported as “binds”.

B2: GASP-1 truncated mutant 380–1395 (domain or fragment, UniProt Q5JY77 380-1395)
chain: MTKEEAKTKARARAKQEARSEEEALIGTWFWATDESSMADEASIESSLQVEDESIIGSWFWTEEEASMGTGASSKSRPRTDGERIGDSLFGAREKTSMKTGAEATSESILAADDEQVIIGSWFWAGEEVNQEAEEETIFGSWFWVIDAASVESGVGVSCESRTRSEEEEVIGPWFWSGEQVDIEAGIGEEARPGAEEETIFGSWFWAENQTYMDCRAETSCDTMQGAEEEEPIIGSWFWTRVEACVEGDVNSKSSLEDKEEAMIPCFGAKEEVSMKHGTGVRCRFMAGAEETNNKSCFWAEKEPCMYPAGGGSWKSRPEEEEDIVNSWFWSRKYTKPEAIIGSWLWATEESNIDGTGEKAKLLTEEETIINSWFWKEDEAISEATDREESRPEAEEGDIIGSWFWAGEEDRLEPAAETREEDRLAAEKEGIVGSWFGAREETIRREAGSCSKSSPKAEEEEVIIGSWFWEEEASPEAVAGVGFESKPGTEEEEITVGSWFWPEEEASIQAGSQAVEEMESETEEETIFGSWFWDGKEVSEEAGPCCVSKPEDDEEMIVESWFWSRDKAIKETGTVATCESKPENEEGAIVGSWFEAEDEVDNRTDNGSNCGSRTLADEDEAIVGSWFWAGDEAHFESNPSPVFRAICRSTCSVEQEPDPSRRPQSWEEVTVQFKPGPWGRVGFPSISPFRFPKEAASLFCEMFGGKPRNMVLSPEGEDQESLLQPDQPSPEFPFQYDPSYRSVQEIREHLRAKESTEPESSSCNCIQCELKIGSEEFEELLLLMEKIRDPFIHEISKIAMGMRSASQFTRDFIRDSGVVSLIETLLNYPSSRVRTSFLENMIRMAPPYPNLNIIQTYICKVCEETLAYSVDSPEQLSGIRMIRHLTTTTDYHTLVANYMSGFLSLLATGNAKTRFHVLKMLLNLSENLFMTKELLSAEAVSEFIGLFNREETNDNIQIVLAIFENIGNNIKKETVFSDDDFNIEPLISAFHKVEKFAKELQGKTDNQNDPEGDQEN
modifications: [35S]-methionine labelled
Consider B2, for which the binding entry in assay [2], in assay [3] and in assay [4] was “binds” throughout.
